# Experimental data reported in PubChem BioAssay AID1671190 (National Center for Advancing Translational Sciences (NCATS), 2021).
# The chains behind the UniProt entries cited, without tags or fusion partners. Where a name states a change or a piece, a line headed by the entry shows the natural chain unless it says otherwise.
# UniProt P18054: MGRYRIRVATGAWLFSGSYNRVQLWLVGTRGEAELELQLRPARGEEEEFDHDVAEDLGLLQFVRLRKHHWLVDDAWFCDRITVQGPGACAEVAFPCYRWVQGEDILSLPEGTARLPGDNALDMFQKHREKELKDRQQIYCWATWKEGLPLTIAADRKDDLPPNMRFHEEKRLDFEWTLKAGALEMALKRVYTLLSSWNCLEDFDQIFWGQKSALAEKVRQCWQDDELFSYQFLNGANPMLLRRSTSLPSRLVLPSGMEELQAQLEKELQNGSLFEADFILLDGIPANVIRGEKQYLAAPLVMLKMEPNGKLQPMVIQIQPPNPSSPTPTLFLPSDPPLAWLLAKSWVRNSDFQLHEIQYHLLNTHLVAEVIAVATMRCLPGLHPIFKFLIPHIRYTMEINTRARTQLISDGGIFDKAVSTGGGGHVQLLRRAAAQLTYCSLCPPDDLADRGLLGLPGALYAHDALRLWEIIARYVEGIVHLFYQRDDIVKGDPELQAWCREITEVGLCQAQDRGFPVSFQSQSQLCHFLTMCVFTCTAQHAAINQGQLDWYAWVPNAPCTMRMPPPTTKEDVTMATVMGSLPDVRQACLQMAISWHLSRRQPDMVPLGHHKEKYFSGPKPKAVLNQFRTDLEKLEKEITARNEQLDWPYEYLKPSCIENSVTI
# Values joined by “and” are separate entries in the source; they are usually repeats but may differ in a detail not shown here. Identical values can stand only once. Hit rate of the full screen: of about 580,000 compounds, about 6,100 (1.1%) were called active. Inconclusive results, whose numbers are uncertain, are shown with a selection of clear calls. Calls follow the shape of the dose curve; as a rule, active = well fitted inhibition curve with a large enough effect; inconclusive = small, poorly fitted or top-dose-only effect, or another doubt; inactive = no such curve, though single readings can be large or run the other way. Potencies beside an inconclusive call are fits to weak or partial responses and may not hold up.
# Target: Polyunsaturated fatty acid lipoxygenase ALOX12 (Homo sapiens) (UniProt P18054)
# Test: Primary qHTS assay for inhibitors of human arachidonate 12S-lipoxygenase (ALOX12): Round 2
# Settings: purified 12hLO, xylenol orange hydroperoxide absorbance; activity change, negative = inhibition: at 108 µM (top of the series) unless noted
# Method in brief: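 Purified human 12hLO (150 nM final) in 25 mM Hepes, 0.01% Triton X-100, pH 7.0 was preincubated 15 min at room temperature with compound. Then 40 uM arachidonic acid was added, 30 min. Hydroperoxide was read by Fe-XO absorbance ratio 573/405 nm.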
# % is scaled to controls: 0 for no effect and ±100 for the full control effect; potency is read from the fitted curve at half-maximal effect.
SMILES,Potency,"activity change, negative = inhibition"
Cc1[nH]c2ccccc2c1/C=N/Nc1nc2ccccc2[nH]1,"inconclusive: 112 µM [inhibitor, single point]",–
Cc1ccc(/C(O)=C2/C(=O)C(=O)N(c3ccccn3)C2c2ccc([N+](=O)[O-])cc2)cc1 (centres undefined),"inconclusive: 15.8 µM [inhibitor, partial curve, poor fit]",–
CCN(C(=O)C(=O)c1c[nH]c2ccccc12)c1cccc(Cl)c1,"inconclusive: 112 µM [inhibitor, single point]",–
N/C(=N\O)c1ccccc1N1CCCCC1,"inconclusive: 100 µM [inhibitor, single point]",–
Brc1ccc(-c2nc3ccccc3s2)s1,–,inactive: 0%
O=C(C[C@@H]1CCNC[C@@H]1Cc1cc(COc2ccccc2)on1)N1CCN(c2ccc(F)cc2)CC1,–,inactive: 43.3%
Cc1cc(C)n2nc(-c3ccc(Br)cc3)cc2n1,–,inactive: 11.8%
CN1C(=O)CN(Cc2ccccc2C#N)C(=O)c2ccccc21,–,inactive: 55.9%
CC(=O)c1cc(-c2ccccc2)n(CCC(=O)NC(C)c2ccccc2)c1C (centres undefined),"inconclusive: 158 µM [inhibitor, partial curve, poor fit]",–
CC(=O)N1CCC(C(=O)N2CCN(S(=O)(=O)c3ccc(Cl)s3)CC2)CC1,–,inactive: 1.87%
N#Cc1ccc(/C=N/Nc2ccc3ccccc3c2)cc1,"inconclusive: 1.12 µM [inhibitor, full curve, poor fit]",–
O=C(O)CC1Sc2nc3ccccc3n2C1=O (centres undefined),"inconclusive: 31.6 µM [inhibitor, partial curve, poor fit]",–
Cc1cc(F)ccc1OC1CN(Cc2ccc(N(C)C)cc2)C1,"inconclusive: 70.8 µM [inhibitor, partial curve]",–
O=C(NCc1ccccn1)[C@@H]1CCCN1C(=O)[C@@H]1CCCN1C(=O)c1cccc(Cl)c1,"inconclusive: 89.1 µM [inhibitor, single point]",–
CCN1C(=O)C(CC(=O)Nc2ccc(OC)cc2)N(CCc2ccc(OC)cc2)C1=S (centres undefined),"inconclusive: 112 µM [inhibitor, single point]",–
N/C(=N\N=C\c1ccc(Cl)cc1)N/N=C/c1ccc(Cl)cc1,"inconclusive: 44.7 µM [inhibitor, partial curve, poor fit] and inconclusive: 18.1 µM [inhibitor, single point]",–
O=C(OCc1nc(-c2cccc(Cl)c2)no1)c1ccccn1,"inconclusive: 15.8 µM [inhibitor, partial curve, poor fit]",–
CCC[C@@H](/C=C/C(=O)OC(C)(C)C)NC(=O)C(F)(F)F,"inconclusive: 50.1 µM [inhibitor, partial curve, poor fit]",–
CC(C)CC(NC(=O)OC(C)(C)C)c1cn([C@@H](Cc2ccc(O)cc2)C(=O)N2CCN(C(=O)OC(C)(C)C)CC2)nn1 (some centres undefined),"inconclusive: 112 µM [inhibitor, single point]",–
CCCCC(CC)CNCc1cccn1CCN1CCOCC1 (centres undefined),"inconclusive: 0.447 µM [inhibitor, full curve, poor fit]",–
CCOc1ccc(NC(=O)c2cc(=O)c3cc(C)ccc3o2)cc1,"inconclusive: 79.4 µM [inhibitor, partial curve, poor fit]",–
O=C(Nc1c(-c2ccc3c(c2)OCO3)[nH][nH]c1=O)c1ccc2c(c1)OCO2,"inconclusive: 44.7 µM [inhibitor, partial curve, poor fit]",–
O=C(NC(=S)Nc1ccc(Cl)c(C(=O)O)c1)c1ccc(OCc2ccccc2)cc1,active: 3.55 µM,–

SMILES,Potency,"activity change, negative = inhibition"
COC(=O)[C@H](CC(C)C)NC(=O)Nc1ccc(S(N)(=O)=O)cc1,–,inactive: -8.49%
CN(C)C1(CNC(=O)c2n[nH]c(=O)c3ccccc23)CCCCCC1,–,inactive: -42.6%
CCOC(=O)C(=O)N1c2ccccc2C(N(C(=O)C(=O)OCC)c2ccccc2)CC1C (centres undefined),"inconclusive: 100 µM [inhibitor, partial curve, poor fit]",–
O=C(NCc1cccs1)c1ccc(CSc2nc3ccncc3n2Cc2ccccc2)cc1,–,inactive: 0.116%
Cn1c(=O)c2c(nc(N3CCC(Cc4ccccc4)CC3)n2CC(=O)O)n(C)c1=O,"inconclusive: 44.7 µM [inhibitor, partial curve, poor fit]",–
CCn1c(N2CCN(Cc3ccccc3F)CC2)nc2c1c(=O)[nH]c(=O)n2C,–,inactive: 1.74%
CCc1cc2c(SCC(=O)NC3CCS(=O)(=O)C3)ncnc2s1 (centres undefined),–,inactive: 4.68%
C[N+]1(CCCCCCCCCCCCCO)CCCC1,active: 28.2 µM,–
COc1cccc(C2=NS(=O)(=O)N(C)C(C(=O)Nc3ccccc3SC)=C2)c1,"inconclusive: 89.1 µM [inhibitor, partial curve, poor fit]",–
CCc1ccccc1NS(=O)(=O)c1ccc2c(c1)C(C)(C)C(=O)N2C,"inconclusive: 44.7 µM [inhibitor, partial curve, poor fit]",–
CCOC(=O)c1ccc(NC(=O)Cn2c(=O)cc(C(F)(F)F)c3c(C)nn(C)c32)cc1,–,inactive: -9.5%
O=C1OC(/C=C/c2ccccc2)=NC/1=C/c1ccco1,"inconclusive: 79.4 µM [inhibitor, single point]",–
CN(C(=S)Nc1cccnc1)c1ccc(O)cc1,"inconclusive: 44.7 µM [inhibitor, partial curve, poor fit]",–
Cc1ccc(Cl)cc1N1CCN(CCCNC(=O)C2COc3ccccc3C2)CC1 (centres undefined),–,inactive: 1.76%
O=C(Nc1c(C(=O)N2CCC(N3CCCCC3)CC2)oc2ccccc12)C1CC1,"inconclusive: 44.7 µM [inhibitor, partial curve, poor fit]",–
COc1ccc(-n2c(C)cc(/C=C3\C(=O)NN(c4ccccc4)C3=O)c2C)cc1,–,inactive: 1.47%
CC(C)(C)NC(=O)C[C@@H]1CCNC[C@@H]1Cc1cc(-c2ccc(C(C)(C)C)cc2)on1,active: 35.5 µM,–
Cc1cccc(C(=O)Nc2ccccc2SCc2ccsc2)c1,–,inactive: -9.82%
Fc1ccc(CSc2nc(NCc3ccccc3)c3ccccc3n2)cc1,–,inconclusive: -34.3% [inhibitor]
CCOc1ccc(NS(=O)(=O)c2ccc3c(c2)N(CC(=O)OC)C(=O)CS3)cc1,–,inactive: 9.16%
N#Cc1ccccc1Cn1c(CN2CCCCC2)nc2scc(-c3cccs3)c2c1=O,–,inactive: -7.47%
CCOC(=O)N1CCc2c(sc3c2C(=O)NC(c2cccc4ccccc24)N3)C1 (centres undefined),"inconclusive: 50.1 µM [inhibitor, partial curve, poor fit]",–
CSc1nsc(SCC(=O)Nc2ccc(C(=O)O)cc2)n1,–,inactive: -4.77%

SMILES,Potency,"activity change, negative = inhibition"
CCOc1ccc(Oc2nc(NCC(C)C)nc(OC)n2)nn1,–,inactive: -2.69%
COCCNC(=S)N(C)C1(c2ccccc2Cl)CCCCC1=O (centres undefined),–,inactive: -4.81%
Cc1cccc(NC(=S)N(CCN(C)C)Cc2cccs2)c1,"inconclusive: 100 µM [inhibitor, single point]",–
O=C(O)c1ccc(COc2ccccc2C=C2C(=O)c3ccccc3C2=O)cc1,–,inactive: -15.7%
O=C(CSc1n[nH]c(-c2ccccc2O)n1)NC1CCCCC1,"inconclusive: 8.91 µM [inhibitor, full curve]",–
Cc1cccc(CSCc2ccc(C(=O)NCCc3ccccc3)o2)c1,–,inactive: -24.7%
Cc1occc1-c1nnc(SCC(=O)c2cc(C)n(C3CC3)c2C)n1C,"inconclusive: 35.5 µM [inhibitor, partial curve]",–
COc1cc(/C=C(\C#N)c2nc3ccccc3[nH]2)ccc1OCc1ccc(C)cc1,–,inactive: 8.48%
Cc1nc(N)sc1C(=O)Nc1ccccc1,"inconclusive: 31.6 µM [inhibitor, single point]",–
COc1cc(Cl)c(CN2CCCC(CO)(Cc3cccc(Cl)c3)C2)cc1OC (centres undefined),"inconclusive: 100 µM [inhibitor, single point]",–
COc1ccc([N+](=O)[O-])cc1NC(=O)C(C)Sc1ccc(C)cc1 (centres undefined),"inconclusive: 141 µM [inhibitor, partial curve, poor fit]",–
COc1cccc(-c2nn(C)c3sc(C(=O)NCc4ccco4)cc23)c1,"inconclusive: 126 µM [inhibitor, partial curve, poor fit]",–
CCc1ccc(-n2nc(CO)c(C(=O)NCc3ccc4c(c3)OCO4)n2)cc1,–,inactive: 1.74%
CCN1C(=O)C(CC(=O)Nc2ccc(OC)cc2)N(CCc2ccccc2F)C1=S (centres undefined),"inconclusive: 112 µM [inhibitor, single point]",–
O=C(O)CN(CC(=O)O)CC(=O)O,"inconclusive: 50.1 µM [inhibitor, partial curve, poor fit]",–
COc1ccc(CC(=O)Nc2ccc(S(=O)(=O)NCC3CCCO3)cc2)cc1 (centres undefined),"inconclusive: 44.7 µM [inhibitor, partial curve, poor fit]",–
CCN(CC)CCN(C(=O)c1ccco1)c1nc2cc(C)cc(C)c2s1,"inconclusive: 50.1 µM [inhibitor, partial curve, poor fit]",–
Nc1c(-c2nc(-c3ccccc3)no2)nnn1CC(=O)Nc1cccc(F)c1,"inconclusive: 100 µM [inhibitor, partial curve, poor fit]",–
Cc1cc(C)c(C(N)=O)c(SCC(=O)c2cc(C)n(-c3cc(C)on3)c2C)n1,"inconclusive: 44.7 µM [inhibitor, partial curve, poor fit]",–
COc1cccc(CNC(=O)Nc2ncc(-c3ccccc3)n2C)c1,–,inactive: -3.57%
CC(C)NC(=O)CN(C)CC(O)COc1ccc(Cl)cc1 (centres undefined),"inconclusive: 7.08 µM [inhibitor, full curve, poor fit]",–
O=C(CSc1ccc(Br)cc1)Nc1cccc(S(=O)(=O)N2CCOCC2)c1,"inconclusive: 79.4 µM [inhibitor, partial curve, poor fit]",–
COCCCn1c(SCC(=O)NC(C)C)nnc1-c1ccccc1,"inconclusive: 44.7 µM [inhibitor, partial curve, poor fit]",–
